Results are given in words; binding and its absence hold for the method and conditions named. Some binding calls cover weakened binding; strength is not graded here.
Legend:
[1] = biological target: sarcosyl-insoluble tau (PHF-tau) isolated from human Alzheimer's disease brain (human) (UniProt P10636); assay: immunoblot of insoluble tau from AD brain (Braak stage V)
[2] = biological target: sarcosyl-insoluble tau (PHF-tau) isolated from human Alzheimer's disease brain (human) (UniProt P10636); assay: hybridoma screening ELISA on coated PHF-tau
[3] = biological target: insoluble tau isolated from FTD brain (human) (UniProt P10636); assay: immunoblot of insoluble tau from FTD brain
[4] = biological target: sarcosyl-insoluble tau (PHF-tau) isolated from human Alzheimer's disease brain (human) (UniProt P10636); assay: immunoblot
fetal rat tau (rat) = fetal rat tau (rat) (UniProt P19332); assay: immunoblot
[5] = biological target: insoluble tau isolated from corticobasal degeneration (CBD) brain (human) (UniProt P10636); assay: immunoblot of insoluble tau from CBD brain

The chains behind the UniProt entries cited, without tags or fusion partners. Where a name states a change or a piece, a line headed by the entry shows the natural chain unless it says otherwise. A line that says so, or that is headed by a name, gives the form on record, which may keep a tag or linker.
insoluble tau isolated from corticobasal degeneration (CBD) brain (P10636, form named): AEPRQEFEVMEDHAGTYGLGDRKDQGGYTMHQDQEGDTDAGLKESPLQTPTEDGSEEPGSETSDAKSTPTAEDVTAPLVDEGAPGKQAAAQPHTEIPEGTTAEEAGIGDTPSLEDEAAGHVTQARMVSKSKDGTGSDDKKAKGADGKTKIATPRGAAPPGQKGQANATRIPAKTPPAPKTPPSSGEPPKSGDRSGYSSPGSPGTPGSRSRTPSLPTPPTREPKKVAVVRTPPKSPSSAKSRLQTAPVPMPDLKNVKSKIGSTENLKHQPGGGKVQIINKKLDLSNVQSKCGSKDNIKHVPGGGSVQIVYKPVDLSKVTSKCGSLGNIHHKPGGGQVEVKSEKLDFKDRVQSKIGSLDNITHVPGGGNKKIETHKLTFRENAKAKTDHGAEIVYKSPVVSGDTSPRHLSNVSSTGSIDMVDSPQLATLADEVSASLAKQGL
fetal rat tau (P19332, form named): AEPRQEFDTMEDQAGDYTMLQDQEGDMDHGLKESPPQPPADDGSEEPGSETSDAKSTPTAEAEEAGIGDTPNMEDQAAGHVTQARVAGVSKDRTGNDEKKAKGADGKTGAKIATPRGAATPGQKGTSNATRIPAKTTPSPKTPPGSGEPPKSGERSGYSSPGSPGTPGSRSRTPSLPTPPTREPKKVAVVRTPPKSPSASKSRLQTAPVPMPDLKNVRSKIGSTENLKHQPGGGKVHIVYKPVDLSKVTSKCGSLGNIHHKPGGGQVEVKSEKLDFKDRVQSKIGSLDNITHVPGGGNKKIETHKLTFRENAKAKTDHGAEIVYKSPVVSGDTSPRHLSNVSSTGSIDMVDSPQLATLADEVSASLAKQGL

Measured: binding

B1: monoclonal antibody DC2E7 (antibody, mouse IgG2a, V domains shown)
VH: DVQLVESGGGLVQPGGSRKLSCAASGFTFSSFGMHWVRQAPEKGLEWVAYISGDSNTIYYADTVKGRFTISRDNPKNTLFLQMTSLRSEDTAIYYCARTLAYWGQGTLVTVS
VL: DIQMTQSSSSFSVSLGDRVTITCKASEDIYNRLAWYQQTPGNAPSLLISGASGLETGVPSRFSGSGSGRDYTLSITSLQTEDVATYYCLQYWSIPWTFGGGTKLEIKR
binds: all assays above

From patent US20210139568A1
